Drawing on publication doi:10.1101/2024.06.17.599268 (bioRxiv, 2024), this text covers binding for 10 molecules.

Chains of the proteins cited; added tags and fusions are not shown. Residues count along the entry.
UniProt P61006, 1-176: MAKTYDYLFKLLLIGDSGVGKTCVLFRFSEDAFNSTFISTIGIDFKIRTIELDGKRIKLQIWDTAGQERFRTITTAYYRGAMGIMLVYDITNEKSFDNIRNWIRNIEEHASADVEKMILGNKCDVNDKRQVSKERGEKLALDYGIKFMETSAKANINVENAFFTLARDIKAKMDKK
UniProt P61026, 1-175: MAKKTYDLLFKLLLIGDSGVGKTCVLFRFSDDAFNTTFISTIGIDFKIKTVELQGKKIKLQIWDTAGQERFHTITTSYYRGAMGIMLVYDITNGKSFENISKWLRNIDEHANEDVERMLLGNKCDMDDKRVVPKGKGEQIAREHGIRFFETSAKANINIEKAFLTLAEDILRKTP

These are yes or no findings as the source states them, for the method shown. Some results given as binding are weak or reduced against the parent protein; the word gives no strength.

Experiment [1] deals with T1, bMERB_(V1041A_I1048A) (human) (UniProt Q8TDZ2).
T1 sequence: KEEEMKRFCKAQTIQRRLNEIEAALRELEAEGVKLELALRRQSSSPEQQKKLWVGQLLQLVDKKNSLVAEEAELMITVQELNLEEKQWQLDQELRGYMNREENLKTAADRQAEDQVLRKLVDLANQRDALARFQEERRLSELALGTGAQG
Put plainly: SEC. Background: SEC sorts molecules by how far they enter the pores of the column.

The target in experiment [2] is Mical1 MO-CH (residues 1-615) (human) (UniProt Q8TDZ2). Put plainly: SEC-MALS.
Experiment [3] has as its target Mical1 MO (residues 1-488) (human) (UniProt Q8TDZ2). Put plainly: SEC-MALS.
The target in experiment [4] is T2, full-length Mical1 (human), Q8TDZ2.
T2 chain: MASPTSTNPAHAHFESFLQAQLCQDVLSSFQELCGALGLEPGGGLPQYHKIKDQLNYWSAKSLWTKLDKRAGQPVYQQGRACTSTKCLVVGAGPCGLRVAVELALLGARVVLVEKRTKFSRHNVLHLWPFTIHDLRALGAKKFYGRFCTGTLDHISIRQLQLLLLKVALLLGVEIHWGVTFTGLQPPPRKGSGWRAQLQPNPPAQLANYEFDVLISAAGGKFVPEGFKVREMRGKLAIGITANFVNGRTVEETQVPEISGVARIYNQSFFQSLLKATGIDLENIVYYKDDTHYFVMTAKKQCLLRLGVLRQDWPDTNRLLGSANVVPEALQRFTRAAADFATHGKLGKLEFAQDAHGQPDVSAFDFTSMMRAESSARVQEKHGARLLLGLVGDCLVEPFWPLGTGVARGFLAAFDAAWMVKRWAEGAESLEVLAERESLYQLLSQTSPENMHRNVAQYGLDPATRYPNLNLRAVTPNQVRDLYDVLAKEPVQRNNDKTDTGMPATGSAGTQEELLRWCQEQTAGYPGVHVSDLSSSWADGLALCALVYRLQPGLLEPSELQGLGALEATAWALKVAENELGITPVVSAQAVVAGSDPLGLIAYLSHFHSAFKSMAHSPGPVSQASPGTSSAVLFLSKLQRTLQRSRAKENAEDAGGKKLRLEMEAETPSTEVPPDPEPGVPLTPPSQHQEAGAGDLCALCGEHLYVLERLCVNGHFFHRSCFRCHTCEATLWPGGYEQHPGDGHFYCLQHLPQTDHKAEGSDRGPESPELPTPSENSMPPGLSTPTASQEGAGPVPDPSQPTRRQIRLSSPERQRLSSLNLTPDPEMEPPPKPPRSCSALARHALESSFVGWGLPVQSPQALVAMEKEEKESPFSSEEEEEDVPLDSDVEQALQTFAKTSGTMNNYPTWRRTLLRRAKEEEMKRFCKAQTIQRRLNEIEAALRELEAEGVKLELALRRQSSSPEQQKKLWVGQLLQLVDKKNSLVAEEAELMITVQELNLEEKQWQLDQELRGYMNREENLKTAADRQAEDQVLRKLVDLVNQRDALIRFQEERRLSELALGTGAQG
Put plainly: SEC-MALS. The note with it: remark: other sources report otherwise.

For experiment [5], the target named is T3, Mical1 MO-CH-LIM (residues 1-781) (human) (UniProt Q8TDZ2).
T3 sequence: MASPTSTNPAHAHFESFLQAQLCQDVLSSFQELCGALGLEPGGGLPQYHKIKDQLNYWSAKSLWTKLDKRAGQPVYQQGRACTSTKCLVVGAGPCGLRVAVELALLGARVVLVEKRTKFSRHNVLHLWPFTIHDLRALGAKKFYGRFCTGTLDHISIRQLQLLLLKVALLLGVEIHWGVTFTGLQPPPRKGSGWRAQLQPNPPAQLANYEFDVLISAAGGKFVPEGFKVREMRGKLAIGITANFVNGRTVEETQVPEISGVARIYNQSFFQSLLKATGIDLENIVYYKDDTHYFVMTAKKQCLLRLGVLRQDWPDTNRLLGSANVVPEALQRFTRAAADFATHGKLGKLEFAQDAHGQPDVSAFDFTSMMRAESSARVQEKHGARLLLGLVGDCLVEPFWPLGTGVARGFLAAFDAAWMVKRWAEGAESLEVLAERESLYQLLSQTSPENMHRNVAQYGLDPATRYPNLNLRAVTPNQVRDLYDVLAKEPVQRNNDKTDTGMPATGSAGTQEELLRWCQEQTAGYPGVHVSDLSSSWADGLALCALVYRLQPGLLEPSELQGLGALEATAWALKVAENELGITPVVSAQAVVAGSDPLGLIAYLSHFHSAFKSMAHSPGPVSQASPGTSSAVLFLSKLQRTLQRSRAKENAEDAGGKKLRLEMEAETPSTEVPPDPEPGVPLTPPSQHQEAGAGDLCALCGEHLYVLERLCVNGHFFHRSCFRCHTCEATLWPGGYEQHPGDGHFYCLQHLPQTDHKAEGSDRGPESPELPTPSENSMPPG
Put plainly: ITC.

The target in experiment [6] is Mical1 bMERB domain (residues 918-1067) (human) (UniProt Q8TDZ2). Put plainly: SEC-MALS.
Experiment [7] has as its target T3, Mical1 MO-CH-LIM (residues 1-781) (human). Put plainly: SEC-MALS.

With “Rab8a_(1-176) (from UniProt P61006 1-176)”, the binding entry in experiment [1] is reported as “binds weakly”.

“Mical1 MO-CH (residues 1-615) (from UniProt Q8TDZ2 1-615) (domain or fragment)”: the binding entry in experiment [2] was “no binding (tested: 2 mg/mL injected)”.

Take “Rab10_(1-175) (from UniProt P61026 1-175)”: the binding entry in experiment [1] was “binds weakly”.

As to “Mical1 MO (residues 1-488) (from UniProt Q8TDZ2 1-488) (domain or fragment)”, the binding entry in experiment [3] is on record as “no binding (tested: 2 mg/mL injected)”.

B1: Rab13_(1-176) (protein, UniProt P51153 1-176)
chain: MAKAYDHLFKLLLIGDSGVGKTCLIIRFAEDNFNNTYISTIGIDFKIRTVDIEGKKIKLQVWDTAGQERFKTITTAYYRGAMGIILVYDITDEKSFENIQNWMKSIKENASAGVERLLLGNKCDMEAKRKVQKEQADKLAREHGIRFFETSAKSSMNVDEAFSSLARDILLKSGGR
Take B1: the binding entry in experiment [1] is recorded as “binds weakly”.

B2: Rab15_(1-176) (natural protein)
chain: MAKQYDVLFRLLLIGDSGVGKTCLLCRFTDNEFHSSHISTIGVDFKMKTIEVDGIKVRIQIWDTAGQERYQTITKQYYRRAQGIFLVYDISSERSYQHIMKWVSDVDEYAPEGVQKILIGNKADEEQKRQVGREQGQQLAKEYGMDFYETSACTNLNIKESFTRLTELVLQAHRKE
In the case of B2, in experiment [1], the binding result is listed as “binds weakly”.

B3: full-length Mical1, Q8TDZ2 1-1067 (enzyme)
chain: MASPTSTNPAHAHFESFLQAQLCQDVLSSFQELCGALGLEPGGGLPQYHKIKDQLNYWSAKSLWTKLDKRAGQPVYQQGRACTSTKCLVVGAGPCGLRVAVELALLGARVVLVEKRTKFSRHNVLHLWPFTIHDLRALGAKKFYGRFCTGTLDHISIRQLQLLLLKVALLLGVEIHWGVTFTGLQPPPRKGSGWRAQLQPNPPAQLANYEFDVLISAAGGKFVPEGFKVREMRGKLAIGITANFVNGRTVEETQVPEISGVARIYNQSFFQSLLKATGIDLENIVYYKDDTHYFVMTAKKQCLLRLGVLRQDWPDTNRLLGSANVVPEALQRFTRAAADFATHGKLGKLEFAQDAHGQPDVSAFDFTSMMRAESSARVQEKHGARLLLGLVGDCLVEPFWPLGTGVARGFLAAFDAAWMVKRWAEGAESLEVLAERESLYQLLSQTSPENMHRNVAQYGLDPATRYPNLNLRAVTPNQVRDLYDVLAKEPVQRNNDKTDTGMPATGSAGTQEELLRWCQEQTAGYPGVHVSDLSSSWADGLALCALVYRLQPGLLEPSELQGLGALEATAWALKVAENELGITPVVSAQAVVAGSDPLGLIAYLSHFHSAFKSMAHSPGPVSQASPGTSSAVLFLSKLQRTLQRSRAKENAEDAGGKKLRLEMEAETPSTEVPPDPEPGVPLTPPSQHQEAGAGDLCALCGEHLYVLERLCVNGHFFHRSCFRCHTCEATLWPGGYEQHPGDGHFYCLQHLPQTDHKAEGSDRGPESPELPTPSENSMPPGLSTPTASQEGAGPVPDPSQPTRRQIRLSSPERQRLSSLNLTPDPEMEPPPKPPRSCSALARHALESSFVGWGLPVQSPQALVAMEKEEKESPFSSEEEEEDVPLDSDVEQALQTFAKTSGTMNNYPTWRRTLLRRAKEEEMKRFCKAQTIQRRLNEIEAALRELEAEGVKLELALRRQSSSPEQQKKLWVGQLLQLVDKKNSLVAEEAELMITVQELNLEEKQWQLDQELRGYMNREENLKTAADRQAEDQVLRKLVDLVNQRDALIRFQEERRLSELALGTGAQG
For B3, the binding result in experiment [4] is listed as “no binding (tested: 2 mg/mL injected)”.

B4: bMERB_(V978A_V985A) (domain or fragment)
chain: KEEEMKRFCKAQTIQRRLNEIEAALRELEAEGVKLELALRRQSSSPEQQKKLWVGQLLQLADKKNSLAAEEAELMITVQELNLEEKQWQLDQELRGYMNREENLKTAADRQAEDQVLRKLVDLVNQRDALIRFQEERRLSELALGTGAQG
Consider B4, for which the binding entry in experiment [5] is reported as “no binding”.

B5: Mical1 bMERB domain (residues 918-1067) (domain or fragment)
chain: KEEEMKRFCKAQTIQRRLNEIEAALRELEAEGVKLELALRRQSSSPEQQKKLWVGQLLQLVDKKNSLVAEEAELMITVQELNLEEKQWQLDQELRGYMNREENLKTAADRQAEDQVLRKLVDLVNQRDALIRFQEERRLSELALGTGAQG
For the molecule B5, in experiment [6], the binding entry is listed as “no binding (tested: 2 mg/mL injected)”.

B6: Mical1 MO-CH-LIM (residues 1-781) (domain or fragment, UniProt Q8TDZ2 1-781)
chain: MASPTSTNPAHAHFESFLQAQLCQDVLSSFQELCGALGLEPGGGLPQYHKIKDQLNYWSAKSLWTKLDKRAGQPVYQQGRACTSTKCLVVGAGPCGLRVAVELALLGARVVLVEKRTKFSRHNVLHLWPFTIHDLRALGAKKFYGRFCTGTLDHISIRQLQLLLLKVALLLGVEIHWGVTFTGLQPPPRKGSGWRAQLQPNPPAQLANYEFDVLISAAGGKFVPEGFKVREMRGKLAIGITANFVNGRTVEETQVPEISGVARIYNQSFFQSLLKATGIDLENIVYYKDDTHYFVMTAKKQCLLRLGVLRQDWPDTNRLLGSANVVPEALQRFTRAAADFATHGKLGKLEFAQDAHGQPDVSAFDFTSMMRAESSARVQEKHGARLLLGLVGDCLVEPFWPLGTGVARGFLAAFDAAWMVKRWAEGAESLEVLAERESLYQLLSQTSPENMHRNVAQYGLDPATRYPNLNLRAVTPNQVRDLYDVLAKEPVQRNNDKTDTGMPATGSAGTQEELLRWCQEQTAGYPGVHVSDLSSSWADGLALCALVYRLQPGLLEPSELQGLGALEATAWALKVAENELGITPVVSAQAVVAGSDPLGLIAYLSHFHSAFKSMAHSPGPVSQASPGTSSAVLFLSKLQRTLQRSRAKENAEDAGGKKLRLEMEAETPSTEVPPDPEPGVPLTPPSQHQEAGAGDLCALCGEHLYVLERLCVNGHFFHRSCFRCHTCEATLWPGGYEQHPGDGHFYCLQHLPQTDHKAEGSDRGPESPELPTPSENSMPPG
On to B6, for which the binding entry in experiment [7] is recorded as “no binding (tested: 2 mg/mL injected)”.
